The results in this text go back to the supplement of paper PMC12819154, “High-throughput peptide-centric local stability assay extends protein–ligand identification to membrane proteins, tissues and bacteria” (Nature Structural & Molecular Biology, 2025).

Amino acid sequences for entries named in this document (tags omitted). A change or cut given only in a name is not applied to a line headed by its entry.
UniProt Q9BQD3: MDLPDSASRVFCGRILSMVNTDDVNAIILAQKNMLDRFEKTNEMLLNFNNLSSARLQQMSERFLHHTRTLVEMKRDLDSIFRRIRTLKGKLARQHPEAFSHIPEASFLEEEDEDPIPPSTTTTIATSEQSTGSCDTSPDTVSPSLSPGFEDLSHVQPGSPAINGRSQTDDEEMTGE
UniProt Q9BVG9: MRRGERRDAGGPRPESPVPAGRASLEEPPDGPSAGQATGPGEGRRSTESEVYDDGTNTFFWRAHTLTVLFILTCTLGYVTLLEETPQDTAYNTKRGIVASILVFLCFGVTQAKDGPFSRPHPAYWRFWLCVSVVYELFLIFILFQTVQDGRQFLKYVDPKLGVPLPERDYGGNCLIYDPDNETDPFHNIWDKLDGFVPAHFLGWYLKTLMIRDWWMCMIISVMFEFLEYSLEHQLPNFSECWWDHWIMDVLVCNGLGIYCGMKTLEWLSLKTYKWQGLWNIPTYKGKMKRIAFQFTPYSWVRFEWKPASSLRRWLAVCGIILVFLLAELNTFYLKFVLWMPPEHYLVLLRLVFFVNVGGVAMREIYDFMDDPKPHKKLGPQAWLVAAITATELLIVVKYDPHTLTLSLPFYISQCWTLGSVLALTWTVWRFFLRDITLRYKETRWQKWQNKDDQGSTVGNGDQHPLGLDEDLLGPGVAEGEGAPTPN
UniProt Q99767, whole entry: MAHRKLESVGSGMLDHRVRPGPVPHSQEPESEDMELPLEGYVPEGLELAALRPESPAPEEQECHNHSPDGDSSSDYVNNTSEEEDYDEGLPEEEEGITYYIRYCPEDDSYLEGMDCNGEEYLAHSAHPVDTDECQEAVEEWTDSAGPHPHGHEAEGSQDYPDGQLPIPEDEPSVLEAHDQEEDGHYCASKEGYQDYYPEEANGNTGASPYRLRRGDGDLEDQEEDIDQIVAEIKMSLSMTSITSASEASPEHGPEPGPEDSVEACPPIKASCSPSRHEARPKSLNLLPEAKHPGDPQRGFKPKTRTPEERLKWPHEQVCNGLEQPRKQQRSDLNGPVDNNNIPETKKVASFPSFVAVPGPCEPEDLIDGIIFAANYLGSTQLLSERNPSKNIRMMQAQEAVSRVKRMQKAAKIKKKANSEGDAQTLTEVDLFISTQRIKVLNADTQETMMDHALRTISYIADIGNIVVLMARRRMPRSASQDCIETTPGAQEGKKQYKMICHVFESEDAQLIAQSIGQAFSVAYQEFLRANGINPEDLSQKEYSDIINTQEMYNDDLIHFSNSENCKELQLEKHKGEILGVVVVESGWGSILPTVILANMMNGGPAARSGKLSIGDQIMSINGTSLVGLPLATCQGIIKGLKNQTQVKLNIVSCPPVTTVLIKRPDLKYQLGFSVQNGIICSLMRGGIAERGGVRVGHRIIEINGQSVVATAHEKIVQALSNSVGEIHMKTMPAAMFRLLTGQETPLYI
UniProt Q9BU02: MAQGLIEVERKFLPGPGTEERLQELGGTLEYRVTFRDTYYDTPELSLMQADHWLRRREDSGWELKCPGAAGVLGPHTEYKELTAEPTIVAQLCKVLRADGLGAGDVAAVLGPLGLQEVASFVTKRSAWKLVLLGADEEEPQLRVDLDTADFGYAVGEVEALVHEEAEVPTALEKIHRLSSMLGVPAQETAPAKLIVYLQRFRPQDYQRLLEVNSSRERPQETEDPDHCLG
UniProt Q99807: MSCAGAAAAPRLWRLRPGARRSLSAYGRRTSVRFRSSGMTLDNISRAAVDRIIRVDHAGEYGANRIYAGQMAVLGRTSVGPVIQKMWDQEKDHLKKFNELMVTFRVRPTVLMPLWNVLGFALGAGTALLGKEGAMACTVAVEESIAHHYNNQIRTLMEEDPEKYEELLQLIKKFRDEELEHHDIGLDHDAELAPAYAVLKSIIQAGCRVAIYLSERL
UniProt Q9BRA2: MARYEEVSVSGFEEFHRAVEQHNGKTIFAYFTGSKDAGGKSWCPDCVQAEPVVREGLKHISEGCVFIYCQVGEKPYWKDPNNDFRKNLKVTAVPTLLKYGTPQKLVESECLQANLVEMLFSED
UniProt Q9BSF8: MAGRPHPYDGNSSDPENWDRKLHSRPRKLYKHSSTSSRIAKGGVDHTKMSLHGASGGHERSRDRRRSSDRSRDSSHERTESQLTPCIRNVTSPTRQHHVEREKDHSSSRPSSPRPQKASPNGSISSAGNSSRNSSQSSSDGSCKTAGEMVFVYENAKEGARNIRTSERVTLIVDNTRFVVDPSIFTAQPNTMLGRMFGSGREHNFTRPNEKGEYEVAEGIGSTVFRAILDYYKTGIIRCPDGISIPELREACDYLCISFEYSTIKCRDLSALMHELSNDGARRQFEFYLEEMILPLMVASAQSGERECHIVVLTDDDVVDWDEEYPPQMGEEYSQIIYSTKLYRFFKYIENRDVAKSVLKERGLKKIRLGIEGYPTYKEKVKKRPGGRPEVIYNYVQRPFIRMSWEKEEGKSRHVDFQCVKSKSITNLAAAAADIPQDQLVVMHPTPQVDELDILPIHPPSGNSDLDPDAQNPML
UniProt Q99607: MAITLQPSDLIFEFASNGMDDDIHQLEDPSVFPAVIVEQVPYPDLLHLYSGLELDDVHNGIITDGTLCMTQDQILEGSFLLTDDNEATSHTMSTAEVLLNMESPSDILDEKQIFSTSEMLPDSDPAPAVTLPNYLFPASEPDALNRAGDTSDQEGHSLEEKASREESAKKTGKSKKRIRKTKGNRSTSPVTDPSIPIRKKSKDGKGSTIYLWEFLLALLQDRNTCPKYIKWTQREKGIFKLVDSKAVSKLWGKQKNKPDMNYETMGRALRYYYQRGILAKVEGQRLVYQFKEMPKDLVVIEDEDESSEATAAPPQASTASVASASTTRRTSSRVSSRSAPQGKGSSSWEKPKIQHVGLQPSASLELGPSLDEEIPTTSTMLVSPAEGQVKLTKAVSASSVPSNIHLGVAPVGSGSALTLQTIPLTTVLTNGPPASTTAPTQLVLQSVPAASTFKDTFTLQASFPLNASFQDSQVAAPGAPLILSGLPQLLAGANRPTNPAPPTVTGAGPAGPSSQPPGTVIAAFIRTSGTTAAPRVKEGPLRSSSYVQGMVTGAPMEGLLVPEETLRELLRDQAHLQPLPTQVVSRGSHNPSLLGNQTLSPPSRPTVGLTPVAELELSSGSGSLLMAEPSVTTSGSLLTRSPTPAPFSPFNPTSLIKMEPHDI
UniProt Q9BUB4: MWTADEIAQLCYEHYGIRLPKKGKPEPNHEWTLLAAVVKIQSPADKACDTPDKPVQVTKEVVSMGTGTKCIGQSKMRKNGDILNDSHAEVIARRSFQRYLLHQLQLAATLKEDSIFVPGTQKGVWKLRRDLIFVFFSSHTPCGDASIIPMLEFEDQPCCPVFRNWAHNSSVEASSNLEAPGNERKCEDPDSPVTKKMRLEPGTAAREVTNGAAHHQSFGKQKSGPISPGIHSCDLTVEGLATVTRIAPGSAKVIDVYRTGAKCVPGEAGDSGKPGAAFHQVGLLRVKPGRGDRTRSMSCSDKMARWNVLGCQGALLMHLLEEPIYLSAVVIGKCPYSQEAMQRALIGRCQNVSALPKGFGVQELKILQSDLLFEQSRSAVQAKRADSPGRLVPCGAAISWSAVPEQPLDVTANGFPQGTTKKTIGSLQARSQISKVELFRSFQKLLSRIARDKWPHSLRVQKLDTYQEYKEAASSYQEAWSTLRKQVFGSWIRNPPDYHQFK
UniProt Q99541: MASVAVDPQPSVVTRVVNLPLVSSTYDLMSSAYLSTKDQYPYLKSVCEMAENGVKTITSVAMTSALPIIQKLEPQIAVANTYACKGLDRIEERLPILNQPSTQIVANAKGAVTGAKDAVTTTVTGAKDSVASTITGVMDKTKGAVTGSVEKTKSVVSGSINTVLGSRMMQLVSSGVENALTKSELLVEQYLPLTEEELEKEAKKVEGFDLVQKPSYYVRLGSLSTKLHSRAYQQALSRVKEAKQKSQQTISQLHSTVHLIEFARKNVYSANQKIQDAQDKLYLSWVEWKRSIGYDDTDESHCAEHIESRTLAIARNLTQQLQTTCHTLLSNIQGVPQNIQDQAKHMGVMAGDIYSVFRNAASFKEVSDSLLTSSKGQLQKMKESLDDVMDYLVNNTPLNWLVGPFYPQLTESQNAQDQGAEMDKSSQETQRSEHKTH
UniProt Q9BUG6: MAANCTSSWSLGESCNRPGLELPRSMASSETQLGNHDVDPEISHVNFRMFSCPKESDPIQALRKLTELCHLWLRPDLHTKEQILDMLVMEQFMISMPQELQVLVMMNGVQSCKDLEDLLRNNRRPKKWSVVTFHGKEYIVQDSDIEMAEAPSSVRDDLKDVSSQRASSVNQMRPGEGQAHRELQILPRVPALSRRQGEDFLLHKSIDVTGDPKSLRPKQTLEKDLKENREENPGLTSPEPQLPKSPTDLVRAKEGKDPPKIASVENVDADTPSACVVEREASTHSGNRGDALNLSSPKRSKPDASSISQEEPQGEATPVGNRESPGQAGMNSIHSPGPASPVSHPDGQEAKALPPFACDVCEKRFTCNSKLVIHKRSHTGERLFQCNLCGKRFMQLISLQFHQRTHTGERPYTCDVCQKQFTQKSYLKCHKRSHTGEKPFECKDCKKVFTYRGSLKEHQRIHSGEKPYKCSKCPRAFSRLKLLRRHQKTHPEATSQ
UniProt Q9BV29: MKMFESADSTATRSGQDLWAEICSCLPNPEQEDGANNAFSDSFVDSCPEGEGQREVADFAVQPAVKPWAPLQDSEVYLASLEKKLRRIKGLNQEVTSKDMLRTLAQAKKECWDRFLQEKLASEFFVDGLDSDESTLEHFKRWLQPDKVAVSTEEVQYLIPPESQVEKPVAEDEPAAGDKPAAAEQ
UniProt Q9BWE0: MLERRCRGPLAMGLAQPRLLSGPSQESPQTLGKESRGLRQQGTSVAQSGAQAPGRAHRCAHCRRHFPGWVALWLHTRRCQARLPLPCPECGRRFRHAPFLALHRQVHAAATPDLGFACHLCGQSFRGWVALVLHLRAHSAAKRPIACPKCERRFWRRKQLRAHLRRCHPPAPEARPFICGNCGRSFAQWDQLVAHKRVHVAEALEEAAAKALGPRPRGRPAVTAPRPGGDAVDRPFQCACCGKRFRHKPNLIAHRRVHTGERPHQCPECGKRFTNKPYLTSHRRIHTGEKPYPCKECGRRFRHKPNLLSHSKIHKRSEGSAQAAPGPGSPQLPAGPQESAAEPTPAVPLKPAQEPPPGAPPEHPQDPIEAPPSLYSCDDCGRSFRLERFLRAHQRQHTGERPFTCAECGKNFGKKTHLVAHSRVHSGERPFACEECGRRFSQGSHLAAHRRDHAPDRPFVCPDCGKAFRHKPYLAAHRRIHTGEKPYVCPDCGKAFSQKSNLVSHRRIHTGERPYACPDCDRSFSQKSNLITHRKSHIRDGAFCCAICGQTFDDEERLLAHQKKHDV
UniProt Q9BRT6: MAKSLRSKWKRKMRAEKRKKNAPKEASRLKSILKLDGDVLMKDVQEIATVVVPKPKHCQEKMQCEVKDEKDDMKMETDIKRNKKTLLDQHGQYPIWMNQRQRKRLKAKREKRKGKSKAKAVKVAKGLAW
UniProt Q9BW27: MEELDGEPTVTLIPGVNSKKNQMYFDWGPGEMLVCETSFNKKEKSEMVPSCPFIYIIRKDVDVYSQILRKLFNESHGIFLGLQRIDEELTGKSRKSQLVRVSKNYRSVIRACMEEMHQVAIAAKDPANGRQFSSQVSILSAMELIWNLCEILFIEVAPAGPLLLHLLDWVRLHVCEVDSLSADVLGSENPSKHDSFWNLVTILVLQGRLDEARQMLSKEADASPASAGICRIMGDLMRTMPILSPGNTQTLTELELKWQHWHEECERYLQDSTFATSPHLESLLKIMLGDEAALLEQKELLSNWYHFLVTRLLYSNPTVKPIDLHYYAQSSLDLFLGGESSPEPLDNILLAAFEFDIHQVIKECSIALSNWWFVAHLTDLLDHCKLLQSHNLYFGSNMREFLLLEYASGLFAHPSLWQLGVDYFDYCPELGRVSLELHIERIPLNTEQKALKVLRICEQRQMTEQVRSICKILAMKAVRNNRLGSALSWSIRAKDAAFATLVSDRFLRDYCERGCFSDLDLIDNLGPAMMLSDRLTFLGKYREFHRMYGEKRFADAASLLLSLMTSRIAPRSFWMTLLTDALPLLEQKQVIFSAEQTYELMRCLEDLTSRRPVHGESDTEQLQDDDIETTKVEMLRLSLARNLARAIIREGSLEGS
UniProt Q9BV38: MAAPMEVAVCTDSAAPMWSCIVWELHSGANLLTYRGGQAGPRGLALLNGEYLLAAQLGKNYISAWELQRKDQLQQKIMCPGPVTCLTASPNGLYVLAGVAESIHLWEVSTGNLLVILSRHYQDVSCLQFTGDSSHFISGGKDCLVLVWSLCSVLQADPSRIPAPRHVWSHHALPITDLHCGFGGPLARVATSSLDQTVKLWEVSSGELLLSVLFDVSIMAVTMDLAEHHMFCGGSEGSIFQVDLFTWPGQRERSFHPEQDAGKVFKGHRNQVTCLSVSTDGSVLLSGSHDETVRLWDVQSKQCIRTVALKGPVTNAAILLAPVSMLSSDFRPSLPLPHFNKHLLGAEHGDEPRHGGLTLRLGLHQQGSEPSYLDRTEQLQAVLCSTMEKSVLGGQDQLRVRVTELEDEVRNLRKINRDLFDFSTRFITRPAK

Some of the results follow. Most values lie at the level of the controls, where differences are scatter.

Compound in this assay: CN[C@@H]1C[C@H]2O[C@@](C)([C@@H]1OC)n1c3ccccc3c3c4c(c5c6ccccc6n2c5c31)C(=O)NC4 [staurosporine]
As to the kind of experiment: log2 fold change of tryptic peptide abundance, ligand vs vehicle (limited proteolysis) (log2 ratio); higher = more trypsin-susceptible (destabilized). The conditions noted are these: ligand concentration: 20 uM; sample: K562 cleared lysate; digestion: 4 min, 22 C (HT-PELSA RT4min, Orbitrap Astral).
For the target “UniProt Q9BVC4 (peptide sequence: NIASVGFHEDGR, peptide start residue: 87)”, the log2 fold change was -0.181.
As to “KXD1 (peptide sequence: DLDSIFR, peptide start residue: 76) (UniProt Q9BQD3)”, the log2 fold change was -0.133.
As for “PTDSS2 (peptide sequence: DAGGPRPESPVPAGR, peptide start residue: 8) (UniProt Q9BVG9)”, the log2 fold change is -0.00409.
In the case of “NEU1 (peptide sequence: QIGSVDTFR, peptide start residue: 70) (UniProt Q99519)”, the log2 fold change was -0.42.
“PI4K2A (peptide sequence: LALEKVPK, peptide start residue: 236) (UniProt Q9BTU6)”: the log2 fold change is 0.236.
“HNRNPUL1 (peptide sequence: LKVNELR, peptide start residue: 6) (UniProt Q9BUJ2)”: the log2 fold change is -0.118.
“APBA2 (peptide sequence: LKWPHEQVCNGLEQPR, peptide start residue: 311) (UniProt Q99767)”: the log2 fold change amounted to 0.3.
Regarding “THTPA (peptide sequence: LLEVNSSR, peptide start residue: 209) (UniProt Q9BU02)”, the log2 fold change is 0.163.
Regarding “COQ7 (peptide sequence: TSVGPVIQK, peptide start residue: 77) (UniProt Q99807)”, the log2 fold change is 0.293.
With “TXNDC17 (peptide sequence: TIFAYFTGSK, peptide start residue: 26) (UniProt Q9BRA2)”, the log2 fold change worked out at 0.216.
Regarding “BTBD10 (peptide sequence: HVDFQCVK, peptide start residue: 414) (UniProt Q9BSF8)”, the log2 fold change worked out at 0.192.
The value for “UniProt Q99607 (peptide sequence: DQAHLQPLPTQVVSR, peptide start residue: 572)” was -0.117; that for “DDX23 (peptide sequence: GIDIQDVSMVVNYDMAK, peptide start residue: 727) (UniProt Q9BUQ8)” was 0.299; that for “ADAT1 (peptide sequence: EVVSMGTGTK, peptide start residue: 60) (UniProt Q9BUB4)” was 0.387.
For “UniProt Q99541 (peptide sequence: DSVASTITGVMDK, peptide start residue: 128)”, the log2 fold change is 0.156.
Turning to “GINS4 (peptide sequence: IEKFFPHVLEKEK, peptide start residue: 100) (UniProt Q9BRT9)”, the log2 fold change is -0.89.
For “UniProt Q9BUG6 (peptide sequence: ASSVNQMRPGEGQAHR, peptide start residue: 166)”, the log2 fold change is -0.251.
On to “EFHD1 (peptide sequence: FEAELKAEQDER, peptide start residue: 205) (UniProt Q9BUP0)”, for which the log2 fold change is 0.379.
Take “UniProt Q9BV29 (peptide sequence: LASEFFVDGLDSDESTLEHFKR, peptide start residue: 120)”: the log2 fold change is -0.137.
The value for “REPIN1 (peptide sequence: VHTGERPHQCPECGK, peptide start residue: 257) (UniProt Q9BWE0)” was -1.21.
The value for “LLPH (peptide sequence: MQCEVKDEK, peptide start residue: 62) (UniProt Q9BRT6)” was 0.32.
On to “NUDT12 (peptide sequence: LLNYAGEVPR, peptide start residue: 209) (UniProt Q9BQG2)”, for which the log2 fold change is -0.0482.
Take “ZFYVE21 (peptide sequence: QCAECALVSLK, peptide start residue: 95) (UniProt Q9BQ24)”: the log2 fold change was -0.479.
Consider “NUP85 (peptide sequence: LLQSHNLYFGSNMR, peptide start residue: 386) (UniProt Q9BW27)”, for which the log2 fold change was -0.484.
The value for “WDR18 (peptide sequence: VRVTELEDEVR, peptide start residue: 400) (UniProt Q9BV38)” was -0.0738.
Turning to “FAM118B (peptide sequence: VLEWAQEK, peptide start residue: 190) (UniProt Q9BPY3)”, the log2 fold change was determined as 0.141.
